# No constants are given. Whether binding was seen depends on the method and setting. Binding seen in cells or lysates may run through a third protein. Some results given as binding are weak or reduced against the parent protein; the word gives no strength.
# T1: Tiam1 (mouse (endogenous in cochlea)), Q60610
# T1 chain: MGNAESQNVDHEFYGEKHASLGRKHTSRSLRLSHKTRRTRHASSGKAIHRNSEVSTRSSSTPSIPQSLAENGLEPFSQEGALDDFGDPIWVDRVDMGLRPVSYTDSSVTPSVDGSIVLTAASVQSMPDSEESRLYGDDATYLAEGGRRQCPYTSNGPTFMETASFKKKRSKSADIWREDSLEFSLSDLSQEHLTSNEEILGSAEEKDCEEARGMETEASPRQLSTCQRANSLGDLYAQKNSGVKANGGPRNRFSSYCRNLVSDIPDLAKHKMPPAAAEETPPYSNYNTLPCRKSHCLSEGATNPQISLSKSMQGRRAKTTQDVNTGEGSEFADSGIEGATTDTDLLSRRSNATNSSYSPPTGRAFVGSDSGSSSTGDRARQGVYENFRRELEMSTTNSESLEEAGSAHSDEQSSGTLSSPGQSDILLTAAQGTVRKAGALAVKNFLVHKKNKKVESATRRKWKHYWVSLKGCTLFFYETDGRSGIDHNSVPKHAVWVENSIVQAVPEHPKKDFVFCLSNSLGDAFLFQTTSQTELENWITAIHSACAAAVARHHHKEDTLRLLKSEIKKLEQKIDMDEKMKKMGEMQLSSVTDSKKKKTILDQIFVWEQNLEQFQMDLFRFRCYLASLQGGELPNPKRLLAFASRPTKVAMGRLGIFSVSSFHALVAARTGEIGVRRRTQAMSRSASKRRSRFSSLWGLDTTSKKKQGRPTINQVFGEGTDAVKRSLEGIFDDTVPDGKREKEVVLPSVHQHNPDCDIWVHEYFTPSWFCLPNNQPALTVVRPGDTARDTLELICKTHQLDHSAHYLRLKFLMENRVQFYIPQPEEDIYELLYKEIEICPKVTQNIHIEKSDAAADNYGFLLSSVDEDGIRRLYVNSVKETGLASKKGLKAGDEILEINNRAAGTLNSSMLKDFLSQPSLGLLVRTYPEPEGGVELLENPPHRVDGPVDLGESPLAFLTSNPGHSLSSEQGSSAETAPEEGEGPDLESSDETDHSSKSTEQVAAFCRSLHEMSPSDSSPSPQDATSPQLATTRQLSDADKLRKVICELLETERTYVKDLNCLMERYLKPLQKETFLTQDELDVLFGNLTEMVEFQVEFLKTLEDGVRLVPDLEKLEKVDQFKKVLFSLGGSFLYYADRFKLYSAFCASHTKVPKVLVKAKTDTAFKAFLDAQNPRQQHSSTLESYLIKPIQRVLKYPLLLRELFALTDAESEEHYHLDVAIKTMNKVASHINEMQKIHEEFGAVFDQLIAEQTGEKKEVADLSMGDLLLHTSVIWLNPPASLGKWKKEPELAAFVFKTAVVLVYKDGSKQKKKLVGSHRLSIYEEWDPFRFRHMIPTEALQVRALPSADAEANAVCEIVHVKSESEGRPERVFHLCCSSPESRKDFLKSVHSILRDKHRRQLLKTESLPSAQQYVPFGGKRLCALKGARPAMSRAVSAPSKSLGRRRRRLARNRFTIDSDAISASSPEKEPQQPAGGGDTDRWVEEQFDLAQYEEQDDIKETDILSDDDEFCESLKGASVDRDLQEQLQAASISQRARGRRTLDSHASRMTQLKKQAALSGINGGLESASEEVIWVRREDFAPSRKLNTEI
# Target: T1, Tiam1 (mouse (endogenous in cochlea)), …
# Assay: co-IP
# Details: remark: other sources report otherwise
binder,measurement,value
"Par3, Q99NH2 1-1333 (protein) MKVTVCFGRTRVVVPCGDGRMKVFSLIQQAVTRYRKAVAKDPNYWIQVHRLEHGDGGILDLDDILCDVADDKDRLVAVFDEQDPHHGGDGTSASFTGTQSPEIFGSELGTNNVSAFQPYQATSEIEVTPSVLRANMPLHVRRSSDPALTGLSTSVSDNNFSSEEPSRKNPTRWSTTAGFLKQNTAGSPKTCDRKKDENYRSLPRDPSSWSNQFQRDNARSSLSASHPMVDRWLEKQEQDEEGTEEDSSRVEPVGHADTGLENMPNFSLDDMVKLVQVPNDGGPLGIHVVPFSARGGRTLGLLVKRLEKGGKAEQENLFHENDCIVRINDGDLRNRRFEQAQHMFRQAMRARVIWFHVVPAANKEQYEQLSQREKNNYSPGRFSPDSHCVANRSVANNAPQALPRAPRLSQPPEQLDAHPRLPHSAHASTKPPAAPALAPPSVLSTNVGSVYNTKKVGKRLNIQLKKGTEGLGFSITSRDVTIGGSAPIYVKNILPRGAAIQDGRLKAGDRLIEVNGVDLAGKSQEEVVSLLRSTKMEGTVSLLVFRQEEAFHPREMNAEPSQMQTPKETKAEDEDVVLTPDGTREFLTFEVPLNDSGSAGLGVSVKGNRSKENHADLGIFVKSIINGGAASKDGRLRVNDQLIAVNGESLLGKANQEAMETLRRSMSTEGNKRGMIQLIVARRISRCNELRSPGSPAAPELPIETELDDRERRISHSLYSGIEGLDESPTRNAALSRIMGKCQLSPTVNMPHDDTVMIEDDRLPVLPPHLSDQSSSSSHDDVGFIMTEAGTWAKATISDSADCSLSPDVDPVLAFQREGFGRQSMSEKRTKQFSDASQLDFVKTRKSKSMDLVADETKLNTVDDQRAGSPSRDVGPSLGLKKSSSLESLQTAVAEVTLNGNIPFHRPRPRIIRGRGCNESFRAAIDKSYDKPMVDDDDEGMETLEEDTEESSRSGRESVSTSSDQPSYSLERQMNGDPEKRDKTERKKDKAGKDKKKDREKEKDKLKAKKGMLKGLGDMFRFGKHRKDDKMEKMGRIKIQDSFTSEEDRVRMKEEQERIQAKTREFRERQARERDYAEIQDFHRTFGCDDELLYGGMSSYEGCLALNARPQSPREGHLMDTLYAQVKKPRSSKPGDSNRSTPSNHDRIQRLRQEFQQAKQDEDVEDRRRTYSFEQSWSSSRPASQSGRHSVSVEVQVQRQRQEERESFQQAQRQYSSLPRQSRKNASSISQDSWEQNYAPGEGFQSAKENPRYSSYQGSRNGYLGGHGFNARVMLETQELLRQEQRRKEQQLKKQPPADGVRGPFRQDVPPSPSQVARLNRLQTPEKGRPFYS",binding,binds

# Reference: article doi:10.1101/323022
